Reference: patent US20220411514A1, “ANTI-GAL3 ANTIBODIES AND METHODS OF USE FOR INSULIN RESISTANCE” (TrueBinding, Inc., priority 2021, published 2022)
No constants are given. Whether binding was seen depends on the method and setting. Some binding calls cover weakened binding; strength is not graded here. Sequences can lack the tags named with a protein.

Chains of the proteins cited; added tags and fusions are not shown. Lines headed by an entry give the natural chain unless they say otherwise; changes in a name come on top.
UniProt P17931: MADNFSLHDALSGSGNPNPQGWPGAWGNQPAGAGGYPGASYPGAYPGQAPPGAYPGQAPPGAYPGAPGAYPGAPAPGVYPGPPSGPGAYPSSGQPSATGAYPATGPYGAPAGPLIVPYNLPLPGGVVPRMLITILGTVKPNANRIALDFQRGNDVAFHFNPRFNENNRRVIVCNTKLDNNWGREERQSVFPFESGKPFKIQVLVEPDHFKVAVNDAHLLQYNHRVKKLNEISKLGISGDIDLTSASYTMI

Molecular target: human Galectin-3 (Gal3) (human) (UniProt P17931)
Experiment: ELISA, FLAG-tagged GLUT on coated Gal3

B1: GLUT4 protein tagged with FLAG (protein, not shown: small tags and cut ends)
chain: MPSGFQQIGSEDGEPPQQRVTGTLVLAVFSAVLGSLQFGYNIGVINAPQKVIEQSYNETWLGRQGPEGPSSIPPGTLTTLWALSVAIFSVGGMISSFLIGIISQWLGRKRAMLVNNVLAVLGGSLMGLANAAASYEMLILGRFLIGAYSGLTSGLVPMYVGEIAPTHLRGALGTLNQLAIVIGILIAQVLGLESLLGTASLWPLLLGLTVLPALLQLVLLPFCPESPRYLYIIQNLEGPARKSLKRLTGWADVSGVLAELKDEKRKLERERPLSLLQLLGSRTHRQPLIIAVVLQLSQQLSGINAVFYYSTSIFETAGVGQPAYATIGAGVVNTVFTLVSVLLVERAGRRTLHLLGLAGMCGCAILMTVALLLLERVPAMSYVSIVAIFGFVAFFEIGPGPIPWFIVAELFSQGPRPAAMAVAGFSNWTSNFIIGMGFQYVAEAMGPYVFLLFAVLLLGFFIFTFLRVPETRGRTFDQISAAFHRTPSLLEQEVKPSTELEYLGPDEND
For B1, the binding was “binds”.
